Measurements published in the supplement of paper PMC10849652.
The other results are listed elsewhere or left out.

Protein sequences, listed by entry. Tags and fused reporters are not part of them. Lines headed by an entry give the natural chain unless they say otherwise; changes in a name come on top.
UniProt Q13352: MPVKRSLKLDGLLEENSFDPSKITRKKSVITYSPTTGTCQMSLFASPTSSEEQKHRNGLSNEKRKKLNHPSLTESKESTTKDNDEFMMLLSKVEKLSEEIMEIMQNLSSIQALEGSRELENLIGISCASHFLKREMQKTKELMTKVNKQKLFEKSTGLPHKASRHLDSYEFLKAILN
UniProt P52333: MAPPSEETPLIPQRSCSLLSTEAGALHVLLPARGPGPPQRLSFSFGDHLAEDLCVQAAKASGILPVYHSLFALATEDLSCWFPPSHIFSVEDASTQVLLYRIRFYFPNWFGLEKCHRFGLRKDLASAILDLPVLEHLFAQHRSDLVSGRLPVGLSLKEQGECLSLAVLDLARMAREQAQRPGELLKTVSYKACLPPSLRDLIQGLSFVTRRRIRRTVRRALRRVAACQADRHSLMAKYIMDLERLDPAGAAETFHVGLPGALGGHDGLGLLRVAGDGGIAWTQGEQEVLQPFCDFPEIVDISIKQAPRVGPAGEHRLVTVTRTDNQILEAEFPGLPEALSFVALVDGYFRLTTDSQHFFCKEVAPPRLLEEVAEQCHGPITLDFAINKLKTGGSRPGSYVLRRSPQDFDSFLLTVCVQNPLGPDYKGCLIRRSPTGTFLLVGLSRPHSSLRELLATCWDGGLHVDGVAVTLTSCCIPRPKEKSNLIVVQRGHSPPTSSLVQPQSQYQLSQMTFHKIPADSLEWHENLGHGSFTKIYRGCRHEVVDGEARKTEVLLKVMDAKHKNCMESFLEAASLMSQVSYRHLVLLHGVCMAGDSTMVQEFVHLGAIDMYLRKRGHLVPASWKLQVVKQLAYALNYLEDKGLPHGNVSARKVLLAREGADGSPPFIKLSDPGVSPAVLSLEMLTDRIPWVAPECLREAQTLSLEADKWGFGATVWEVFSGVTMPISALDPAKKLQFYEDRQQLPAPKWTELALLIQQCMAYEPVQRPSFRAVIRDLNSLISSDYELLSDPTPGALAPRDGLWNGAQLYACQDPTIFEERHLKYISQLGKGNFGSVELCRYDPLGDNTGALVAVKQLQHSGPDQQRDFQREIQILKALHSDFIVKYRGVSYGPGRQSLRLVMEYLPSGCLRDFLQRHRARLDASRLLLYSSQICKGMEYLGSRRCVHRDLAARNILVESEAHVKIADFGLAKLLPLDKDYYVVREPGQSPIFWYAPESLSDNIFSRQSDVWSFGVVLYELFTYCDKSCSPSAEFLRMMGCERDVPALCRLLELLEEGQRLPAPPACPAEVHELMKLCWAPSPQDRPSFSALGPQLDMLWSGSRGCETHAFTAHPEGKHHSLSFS
UniProt P01591, whole entry, looked up: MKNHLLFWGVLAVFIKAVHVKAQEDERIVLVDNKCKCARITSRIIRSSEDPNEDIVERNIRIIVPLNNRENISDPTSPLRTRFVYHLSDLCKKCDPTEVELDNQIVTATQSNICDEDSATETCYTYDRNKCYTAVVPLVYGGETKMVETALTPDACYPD
UniProt Q8WZ19: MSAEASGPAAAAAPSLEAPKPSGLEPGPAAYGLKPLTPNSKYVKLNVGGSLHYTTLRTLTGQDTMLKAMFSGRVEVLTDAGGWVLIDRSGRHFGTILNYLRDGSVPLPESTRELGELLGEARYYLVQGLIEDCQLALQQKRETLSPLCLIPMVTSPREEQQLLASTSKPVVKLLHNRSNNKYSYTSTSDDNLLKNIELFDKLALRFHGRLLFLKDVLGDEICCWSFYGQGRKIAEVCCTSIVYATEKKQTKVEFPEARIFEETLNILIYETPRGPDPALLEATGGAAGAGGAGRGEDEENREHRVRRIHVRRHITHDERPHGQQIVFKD
UniProt Q14573, whole entry, looked up: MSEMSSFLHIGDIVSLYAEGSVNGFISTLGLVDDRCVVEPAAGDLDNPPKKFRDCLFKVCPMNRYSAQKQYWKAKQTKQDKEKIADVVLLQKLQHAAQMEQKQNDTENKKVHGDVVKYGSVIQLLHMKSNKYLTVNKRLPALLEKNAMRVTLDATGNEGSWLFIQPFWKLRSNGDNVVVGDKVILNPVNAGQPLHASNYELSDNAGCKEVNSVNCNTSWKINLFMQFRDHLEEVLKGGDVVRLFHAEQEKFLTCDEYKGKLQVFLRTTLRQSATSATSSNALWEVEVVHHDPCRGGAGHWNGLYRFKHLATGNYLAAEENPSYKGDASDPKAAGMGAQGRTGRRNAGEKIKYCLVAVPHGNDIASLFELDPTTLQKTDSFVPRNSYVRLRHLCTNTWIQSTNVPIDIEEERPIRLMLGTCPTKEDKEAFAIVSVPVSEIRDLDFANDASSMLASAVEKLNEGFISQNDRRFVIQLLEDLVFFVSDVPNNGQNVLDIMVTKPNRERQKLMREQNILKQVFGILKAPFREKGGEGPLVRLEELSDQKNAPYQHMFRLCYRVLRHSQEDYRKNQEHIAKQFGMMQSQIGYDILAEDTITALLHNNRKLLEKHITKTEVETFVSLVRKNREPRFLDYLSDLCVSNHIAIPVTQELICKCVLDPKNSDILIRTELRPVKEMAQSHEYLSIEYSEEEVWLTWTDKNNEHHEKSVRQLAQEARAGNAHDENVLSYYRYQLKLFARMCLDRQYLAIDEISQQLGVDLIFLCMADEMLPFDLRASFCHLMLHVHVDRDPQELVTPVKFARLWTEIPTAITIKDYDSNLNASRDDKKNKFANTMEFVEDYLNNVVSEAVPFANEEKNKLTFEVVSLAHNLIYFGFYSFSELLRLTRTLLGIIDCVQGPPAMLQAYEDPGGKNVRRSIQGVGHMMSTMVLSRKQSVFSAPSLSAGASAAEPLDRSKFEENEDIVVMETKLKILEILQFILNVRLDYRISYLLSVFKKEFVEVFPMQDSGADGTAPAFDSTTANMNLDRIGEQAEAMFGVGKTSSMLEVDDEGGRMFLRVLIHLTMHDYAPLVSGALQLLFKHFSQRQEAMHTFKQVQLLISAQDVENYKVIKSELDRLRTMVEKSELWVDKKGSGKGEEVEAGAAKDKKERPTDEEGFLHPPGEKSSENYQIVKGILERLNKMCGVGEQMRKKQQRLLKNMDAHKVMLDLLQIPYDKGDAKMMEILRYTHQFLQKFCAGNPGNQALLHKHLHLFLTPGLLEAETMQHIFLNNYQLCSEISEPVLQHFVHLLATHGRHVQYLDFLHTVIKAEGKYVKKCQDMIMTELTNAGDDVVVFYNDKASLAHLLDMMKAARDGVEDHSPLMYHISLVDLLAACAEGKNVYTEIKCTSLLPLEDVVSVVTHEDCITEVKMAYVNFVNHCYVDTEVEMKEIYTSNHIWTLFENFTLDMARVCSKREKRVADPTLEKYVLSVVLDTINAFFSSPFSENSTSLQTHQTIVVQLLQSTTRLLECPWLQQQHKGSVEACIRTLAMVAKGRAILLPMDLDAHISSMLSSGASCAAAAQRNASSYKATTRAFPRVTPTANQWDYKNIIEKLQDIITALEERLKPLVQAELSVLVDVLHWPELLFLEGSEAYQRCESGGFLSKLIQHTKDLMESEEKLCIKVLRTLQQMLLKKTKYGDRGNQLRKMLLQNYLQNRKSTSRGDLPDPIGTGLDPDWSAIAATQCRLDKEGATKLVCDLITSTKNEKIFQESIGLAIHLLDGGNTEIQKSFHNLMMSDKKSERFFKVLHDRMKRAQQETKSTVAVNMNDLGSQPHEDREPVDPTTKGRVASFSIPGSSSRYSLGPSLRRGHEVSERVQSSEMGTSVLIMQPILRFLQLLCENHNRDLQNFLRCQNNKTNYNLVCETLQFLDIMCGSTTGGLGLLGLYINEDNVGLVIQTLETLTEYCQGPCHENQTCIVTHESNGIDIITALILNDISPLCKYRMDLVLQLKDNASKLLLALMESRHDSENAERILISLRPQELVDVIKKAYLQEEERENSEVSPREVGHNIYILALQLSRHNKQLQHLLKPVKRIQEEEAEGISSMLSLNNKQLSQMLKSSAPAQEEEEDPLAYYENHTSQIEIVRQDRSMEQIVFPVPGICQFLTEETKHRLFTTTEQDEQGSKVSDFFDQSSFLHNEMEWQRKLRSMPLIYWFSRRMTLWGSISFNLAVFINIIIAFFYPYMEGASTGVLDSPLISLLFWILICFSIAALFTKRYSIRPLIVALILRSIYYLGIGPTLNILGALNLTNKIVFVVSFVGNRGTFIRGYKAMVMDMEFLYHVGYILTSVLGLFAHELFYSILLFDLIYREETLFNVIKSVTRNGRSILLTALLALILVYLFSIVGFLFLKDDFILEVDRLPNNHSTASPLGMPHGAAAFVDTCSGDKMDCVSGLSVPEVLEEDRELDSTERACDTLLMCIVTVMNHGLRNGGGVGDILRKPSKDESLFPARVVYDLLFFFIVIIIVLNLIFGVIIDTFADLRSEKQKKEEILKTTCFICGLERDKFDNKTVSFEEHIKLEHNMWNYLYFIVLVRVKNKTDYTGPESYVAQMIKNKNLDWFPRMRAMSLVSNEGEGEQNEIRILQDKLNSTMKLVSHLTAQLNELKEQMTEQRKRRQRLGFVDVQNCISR
UniProt Q9NQX7: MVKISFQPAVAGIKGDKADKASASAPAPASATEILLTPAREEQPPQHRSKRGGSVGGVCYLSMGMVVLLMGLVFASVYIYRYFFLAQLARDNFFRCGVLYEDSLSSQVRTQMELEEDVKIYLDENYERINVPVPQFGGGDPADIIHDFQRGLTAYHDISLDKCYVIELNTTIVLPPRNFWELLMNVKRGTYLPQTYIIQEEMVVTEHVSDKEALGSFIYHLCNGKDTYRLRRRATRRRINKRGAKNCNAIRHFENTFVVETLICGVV
UniProt P0C870: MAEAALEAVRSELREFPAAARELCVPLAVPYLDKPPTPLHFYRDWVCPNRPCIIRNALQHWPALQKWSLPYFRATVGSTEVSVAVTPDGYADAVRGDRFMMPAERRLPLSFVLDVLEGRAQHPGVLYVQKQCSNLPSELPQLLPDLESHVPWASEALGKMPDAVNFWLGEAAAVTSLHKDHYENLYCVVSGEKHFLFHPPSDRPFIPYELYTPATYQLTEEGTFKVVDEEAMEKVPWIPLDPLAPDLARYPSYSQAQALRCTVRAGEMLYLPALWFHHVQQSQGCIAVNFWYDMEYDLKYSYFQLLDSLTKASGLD
UniProt Q96A47: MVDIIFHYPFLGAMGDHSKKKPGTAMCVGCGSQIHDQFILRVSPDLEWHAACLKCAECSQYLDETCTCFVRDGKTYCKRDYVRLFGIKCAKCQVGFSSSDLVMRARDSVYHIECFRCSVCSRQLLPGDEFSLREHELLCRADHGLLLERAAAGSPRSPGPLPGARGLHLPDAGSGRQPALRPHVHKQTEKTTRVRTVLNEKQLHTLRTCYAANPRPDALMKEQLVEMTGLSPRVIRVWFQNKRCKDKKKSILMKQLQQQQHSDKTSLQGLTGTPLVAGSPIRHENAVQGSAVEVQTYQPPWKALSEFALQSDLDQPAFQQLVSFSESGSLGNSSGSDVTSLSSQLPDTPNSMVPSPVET
UniProt P19823: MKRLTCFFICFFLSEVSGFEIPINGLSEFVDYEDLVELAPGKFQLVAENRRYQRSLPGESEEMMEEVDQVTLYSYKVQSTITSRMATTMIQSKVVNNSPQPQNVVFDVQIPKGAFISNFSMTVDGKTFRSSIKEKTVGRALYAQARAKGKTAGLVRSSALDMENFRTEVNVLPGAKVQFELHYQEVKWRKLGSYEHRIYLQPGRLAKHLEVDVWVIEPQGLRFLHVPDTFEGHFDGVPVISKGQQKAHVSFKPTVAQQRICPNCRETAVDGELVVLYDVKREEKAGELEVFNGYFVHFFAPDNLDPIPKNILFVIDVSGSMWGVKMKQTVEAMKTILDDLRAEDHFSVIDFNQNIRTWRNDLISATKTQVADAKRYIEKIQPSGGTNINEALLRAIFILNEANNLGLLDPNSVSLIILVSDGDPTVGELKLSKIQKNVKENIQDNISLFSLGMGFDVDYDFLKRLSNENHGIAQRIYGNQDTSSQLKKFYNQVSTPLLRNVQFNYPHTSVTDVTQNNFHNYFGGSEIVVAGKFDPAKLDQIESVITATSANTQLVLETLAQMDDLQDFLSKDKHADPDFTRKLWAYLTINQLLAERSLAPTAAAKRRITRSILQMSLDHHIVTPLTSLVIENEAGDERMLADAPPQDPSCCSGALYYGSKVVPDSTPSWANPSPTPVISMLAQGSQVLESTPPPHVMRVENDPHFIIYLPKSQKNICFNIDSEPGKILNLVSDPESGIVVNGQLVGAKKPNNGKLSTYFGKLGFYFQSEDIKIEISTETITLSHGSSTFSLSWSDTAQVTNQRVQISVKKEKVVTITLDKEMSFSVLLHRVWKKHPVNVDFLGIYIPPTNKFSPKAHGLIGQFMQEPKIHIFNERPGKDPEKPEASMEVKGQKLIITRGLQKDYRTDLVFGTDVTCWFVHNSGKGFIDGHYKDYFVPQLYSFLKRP

Experiments:
Assay in all cases: log2 fold change, soluble protein after heating vs DMSO (PISA); higher = thermal stabilisation; K562 lysate, 10 uM; active = over 0.2 and 3.5 SD of the protein, either way, in both replicates (recomputed)
[1] = compound: O=C1NC(=O)C(c2cnc3ccccn23)=C1c1cn2c3c(cc(F)cc13)CN(C(=O)N1CCCCC1)CC2
Outline: (§1)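 K562 pellets were dounce-homogenised in PBS pH 7.4 containing 1 mM MgCl2, and the crude extract, at 1 mg/mL protein, was exposed to 10 μM compound for 30 min. Aliquots were heated for 3 min across 48°C-58°C, pooled, brought to 0.5% NP-40 at 4°C and spun at 21,000xg for 90 min, with the supernatant taken as soluble protein. TMTpro 16plex LC-MS/MS with equalised channel sums quantified that protein. Values are log-two fold changes in thermal stability relative to solvent controls, taken from duplicates.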

[2] = compound: NCC(=O)Nc1ccc(-n2nc(C(F)(F)F)cc2-c2ccc3c(ccc4ccccc43)c2)cc1
Outline: as §1

[3] = compound: O=C(CCCCCCC(=O)Nc1ccccc1)NO [vorinostat]
Outline: as §1

[4] = compound: O=C(O)c1ccc2c(c1)nc(Nc1cccc(Cl)c1)c1ccncc12 [silmitasertib]
Outline: as §1

[5] = compound: c1cn2cc(-c3ccc4cn[nH]c4c3)nc(Nc3ccc(N4CCOCC4)cc3)c2n1 [entospletinib]
Outline: as §1

ITGB3BP isoform 5 (UniProt Q13352) was tested, and the log2 fold change [1] was inactive: -0.263.

In the case of JAK3 (UniProt P52333), the log2 fold change [2] is reported as inactive: -0.319 and the log2 fold change [1] is reported as inactive: -0.002.

JCHAIN (UniProt P01591) was tested, and the log2 fold change [3] was inactive: 0.033, the log2 fold change [4] was inactive: 0.027 and the log2 fold change [1] was inactive: 0.538.

In the case of KBTBD6 (UniProt Q86V97), the log2 fold change [1] is reported as inactive: -0.105.

For KCTD13 (UniProt Q8WZ19), the log2 fold change [3] was inactive: -0.193, the log2 fold change [4] was inactive: 0.163 and the log2 fold change [1] was inactive: 0.004.

JAG2 (UniProt Q9Y219) was tested, and the log2 fold change [3] was inactive: -0.095, the log2 fold change [4] was inactive: -0.067 and the log2 fold change [1] was inactive: 0.037. The log2 fold change [5] was inactive: -0.062.

In the case of ITPR3 (UniProt Q14573), the log2 fold change [3] is reported as inactive: 0.297, the log2 fold change [4] is reported as inactive: -0.277 and the log2 fold change [1] is reported as inactive: 0.009.

For KANSL2 (UniProt Q9H9L4), the log2 fold change [3] was inactive: -0.091, the log2 fold change [4] was inactive: -0.204 and the log2 fold change [1] was inactive: 0.089.

For ITM2C (UniProt Q9NQX7), the log2 fold change [3] was inactive: 0.053, the log2 fold change [4] was inactive: -0.019 and the log2 fold change [1] was inactive: -0.022. The log2 fold change [5] was inactive: 0.004.

For JUNB (UniProt P17275), the log2 fold change [1] was inactive: -0.086.

With JMJD7 (UniProt P0C870) the log2 fold change [3] was inactive: 0.262, the log2 fold change [4] was inactive: -0.014 and the log2 fold change [5] was inactive: -0.235.

With ISL2 (UniProt Q96A47) the log2 fold change [3] was inactive: -0.026, the log2 fold change [4] was inactive: 0.04 and the log2 fold change [1] was inactive: 0.179.

For ITPR2 (UniProt Q14571), the log2 fold change [3] was active: -0.965 and the log2 fold change [4] was inactive: 0.024.

For ITIH2 (UniProt P19823), the log2 fold change [2] was inactive: 0.04, the log2 fold change [1] was inactive: 0.027 and the log2 fold change [5] was inactive: -0.023.
